The list does not hold the whole screen: it is rich in T/C values a quarter to a half above the control, in often repeated tests (any T/C) and in doses without a T/C. Further doses and runs are listed elsewhere. T/C: endpoint of the treated group in % of that of the vehicle group. Schedule codes are those of the source, taken here to give the interval after Q, in days (D) or hours (H), and the number of doses after X. Some doses were run more than once; the results are listed from low to high. Some structures stand for samples that the source files as different forms (salt, stereo form or complex); doses refer to the form tested. Some T/C values are followed by the survivors on the day toxicity was checked, most often the fifth; without a count, all were alive then. Some doses have a count of surviving animals in place of a T/C: the source holds a T/C of zero for them, seemingly a mark for toxic or unscored doses. Counts of survivors are from the toxicity check (mostly the fifth day) where no day follows; animals may have died later. Some schedules carry Z or #; the key to these is not given. Numbered stars: 1 amine (or outer) side, 2 acyl side, 3 side chain; on linkers, the order of the positions; unused ones are H or OH. Bridge positions count the residues as written; N and C are the ends. Square brackets hold non-standard residues; d marks the D form. Peptide text beside a SMILES is read from it. * marks the point of attachment. X1 = CC(C)C(C)C(C(=O)[*:2])N(C)[*:1]; Picolinoyl(3-OH) = O=C(c1ncccc1O)*; NMePhg = CN[CH](C(=O)O)c1ccccc1; Hyp = O=C(O)[CH]1C[CH](O)CN1; Sar = CNCC(=O)O
System: Swiss mice, Sarcoma 180 sc, mean tumor weight T/C
Test: NCI In Vivo Anticancer Drug Screen. Data for tumor model Sarcoma 180 (subcutaneous) in Swiss mice
Settings: T/C endpoint: mean tumor weight, higher T/C = larger tumour; for T/C: evaluated on day 8
Outline: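 Readout is the ratio of treated-group measurement to vehicle-control measurement (T/C), based on survival or tumor size in mice carrying transplanted tumors.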

[1] = dose: 40.0 mg/kg/injection, schedule: Q01DX007 (ip), vehicle: carboxymethylcellulose (CMC)
[2] = dose: 125.0 mg/kg/injection, schedule: Q01DX007 (ip), vehicle: carboxymethylcellulose (CMC)

`CCCCSc1ncnc2nc[nH]c12` was tested, and the survivor count (dose: 140.0 mg/kg/injection, schedule: Q01DX007 (ip), vehicle: carboxymethylcellulose (CMC)) was 3 of 6.

In the case of `CC1CN1C(=O)Nc1cccc2c(NC(=O)N3CC3C)cccc12` (centres undefined), the survivor count (dose: 31.5 mg/kg/injection, schedule: Q#A X014 (ip), vehicle: methylcellulose (MC)) is reported as 3 of 6, the survivor count (dose: 53.0 mg/kg/injection, schedule: Q01DX007 (ip), vehicle: carboxymethylcellulose (CMC)) is reported as 3 of 6 and the survivor count (dose: 80.0 mg/kg/injection, schedule: Q01DX007 (ip), vehicle: carboxymethylcellulose (CMC)) is reported as 0 of 6. For the same compound, the survivor count (dose: 120.0 mg/kg/injection, schedule: Q01DX007 (ip), vehicle: carboxymethylcellulose (CMC)) was 0 of 6 and the survivor count (dose: 120.0 mg/kg/injection, schedule: Q01DX007 (ip), vehicle: saline) was 1 of 7.

In the case of `CC(C)CC1NC(=O)C(NC(=O)c2ncccc2O)C(C)OC(=O)C(c2ccccc2)N(C)C(=O)C(C)NC(=O)C(C(C)C(C)C)N(C)C(=O)CN(C)C(=O)C2CC(O)CN2C1=O` (centres undefined) ({Picolinoyl(3-OH)}-TL[Hyp][Sar][X1]A[NMePhg]; ester 1-C; configuration not given here), the T/C (dose: 12.5 mg/kg/injection, schedule: Q01DX007 (ip), vehicle: carboxymethylcellulose (CMC)) is reported as 139 % of control and the T/C (dose: 150.0 mg/kg/injection, schedule: Q01DX007 (ip), vehicle: carboxymethylcellulose (CMC)) is reported as 125 % of control.

`COc1ccc2c(=O)oc3c(OC)cc(CCN(C)C)c4c(=O)oc1c2c34` was tested, and the survivor count (dose: 100.0 mg/kg/injection, schedule: Q01DX007 (ip), vehicle: water) was 0 of 6, the survivor count (dose: 200.0 mg/kg/injection, schedule: Q01DX007 (ip), vehicle: water) was 0 of 6 and the survivor count (dose: 400.0 mg/kg/injection, schedule: Q01DX007 (ip), vehicle: water) was 0 of 6.

In the case of `CCCCOC(=O)C1(N)CCCC1`, the survivor count (dose: 300.0 mg/kg/injection, schedule: Q01DX007 (ip), vehicle: carboxymethylcellulose (CMC)) is reported as 4 of 7 and the survivor count (dose: 504.0 mg/kg/injection, schedule: Q01DX007 (ip), vehicle: saline) is reported as 2 of 6.

For `O=C(O)O.[Cd]`, the survivor count (dose: 10.0 mg/kg/injection, schedule: Q01DX007 (ip), vehicle: carboxymethylcellulose (CMC)) was 2 of 6, the survivor count [1] was 2 of 6 and the survivor count [2] was 1 of 6. For the same compound, the survivor count (dose: 500.0 mg/kg/injection, schedule: Q01DX007 (ip), vehicle: carboxymethylcellulose (CMC)) was 2 of 6.

With `CCn1cnc2c(=S)nc[nH]c21` the survivor count (dose: 200.0 mg/kg/injection, schedule: Q01DX007 (ip), vehicle: carboxymethylcellulose (CMC)) was 1 of 6 and the survivor count (dose: 400.0 mg/kg/injection, schedule: Q01DX007 (ip), vehicle: carboxymethylcellulose (CMC)) was 0 of 6.

`C[C@@H]1C[C@H]2[C@@H]3CCC4=CC(=O)C=C[C@]4(C)[C@@]3(F)[C@@H](O)C[C@]2(C)[C@@]1(O)C(=O)CO` was tested, and the survivor count (dose: 36.0 mg/kg/injection, schedule: Q01DX007 (sc), vehicle: steroid suspending solution) was 1 of 6 and the survivor count (dose: 54.0 mg/kg/injection, schedule: Q01DX007 (sc), vehicle: steroid suspending solution) was 1 of 6.

In the case of `CCCCCCCCCCCCO[P+](=O)OCCCCCCCCCCCC`, the survivor count (dose: 166.5 mg/kg/injection, schedule: Q#A X014 (ip), vehicle: carboxymethylcellulose (CMC)) is reported as 3 of 6 and the survivor count (dose: 750.0 mg/kg/injection, schedule: Q01DX007 (ip), vehicle: carboxymethylcellulose (CMC)) is reported as 3 of 6.

For `CC(=O)OCC1=CC2OC(=O)C3=COC(OC4OC(CO)C(O)C(O)C4O)C1C32` (centres undefined), the T/C (dose: 330.0 mg/kg/injection, schedule: Q01DX007 (ip), vehicle: carboxymethylcellulose (CMC)) was 138 % of control.

For `CC(=O)Nc1c(Cl)cc2c(c1Cl)Cc1cc([N+](=O)[O-])ccc1-2`, the survivor count (dose: 333.0 mg/kg/injection, schedule: Q01DX007 (ip), vehicle: saline) was 2 of 6, the survivor count (dose: 500.0 mg/kg/injection, schedule: Q01DX007 (ip), vehicle: saline) was 2 of 6 and the survivor count (dose: 750.0 mg/kg/injection, schedule: Q01DX007 (ip), vehicle: saline) was 3 of 6.

With `CCCCCCCCCCCCOP(N)(=O)OCCCCCCCCCCCC` the T/C [1] was 147 % of control [4 of 6 alive], the survivor count [2] was 0 of 6 and the survivor count (dose: 187.0 mg/kg/injection, schedule: Q01DX007 (ip), vehicle: carboxymethylcellulose (CMC)) was 0 of 6.

`O=C(O)CC[S-].[Ag+]` was tested, and the survivor count (dose: 281.0 mg/kg/injection, schedule: Q#A X014 (ip), vehicle: methylcellulose (MC)) was 1 of 6.

In the case of `Nc1ccc(C(=O)O)c(O)c1`, the survivor count (dose: 767.0 mg/kg/injection, schedule: Q01DX007 (ip), vehicle: carboxymethylcellulose (CMC)) is reported as 1 of 10.

With `CC(=O)[C@H]1[C@H](C)C[C@H]2[C@@H]3CCC4=CC(=O)CC[C@]4(C)[C@@]3(F)[C@@H](O)C[C@@]21C` the survivor count (dose: 375.0 mg/kg/injection, schedule: Q01DX007 (sc), vehicle: steroid suspending solution) was 3 of 6 and the survivor count (dose: 2850.0 mg/kg/injection, schedule: Q01DX007 (sc), vehicle: steroid suspending solution) was 3 of 7.

With `O=S(c1ccc(Cl)cc1)c1ccc(Cl)cc1` the survivor count [2] was 2 of 6.

For `CCCCCC[C@@H](O)C/C=C\CCCCCCCC(=O)O`, the survivor count (dose: 250.0 mg/kg/injection, schedule: Q01DX007 (ip), vehicle: saline) was 0 of 6.

In the case of `CC(C)(S)C(N)C(=O)O` (centres undefined), the T/C (dose: 50.0 mg/kg/injection, schedule: Q01DX007 (oral), vehicle: saline) is reported as 131 % of control, the survivor count (dose: 100.0 mg/kg/injection, schedule: Q01DX007 (oral), vehicle: saline) is reported as 4 of 7 and the T/C (dose: 125.0 mg/kg/injection, schedule: Q01DX007 (oral), vehicle: saline) is reported as 125 % of control. For the same compound, the survivor count (dose: 200.0 mg/kg/injection, schedule: Q01DX007 (oral), vehicle: saline) was 0 of 7 and the T/C (dose: 500.0 mg/kg/injection, schedule: Q01DX007 (oral), vehicle: saline) was 128 % of control.

`COc1cccc2c1C(=O)c1c(O)c3c(c(O)c1C2=O)C[C@@](O)(C(C)=O)C[C@@H]3OC1CC(N)C(O)C(C)O1` (some centres undefined) was tested, and the T/C (dose: 1.0 mg/kg/injection, schedule: Q01DX007 (sc), vehicle: steroid suspending solution) was 134 % of control and the survivor count (dose: 10.0 mg/kg/injection, schedule: Q01DX007 (sc), vehicle: steroid suspending solution) was 2 of 6 and 3 of 6.

`CCCS/C(N)=N/N=C/c1ccc([N+](=O)[O-])o1` was tested, and the survivor count (dose: 40.0 mg/kg/injection, schedule: Q01DX007 (ip), vehicle: other) was 3 of 7, the survivor count (dose: 60.0 mg/kg/injection, schedule: Q01DX007 (ip), vehicle: other) was 4 of 7 and the survivor count (dose: 90.0 mg/kg/injection, schedule: Q01DX007 (ip), vehicle: other) was 0 of 7. For the same compound, the survivor count (dose: 90.0 mg/kg/injection, schedule: Q01DX007 (ip), vehicle: water) was 1 of 6.

With `CN(C)C1=C(Cl)C(=O)C(=O)c2cccnc21` the survivor count (dose: 25.0 mg/kg/injection, schedule: Q01DX007 (ip), vehicle: water) was 1 of 6 and the survivor count (dose: 50.0 mg/kg/injection, schedule: Q01DX007 (ip), vehicle: water) was 1 of 6.

`CCSCCC(N)C(=O)O` (centres undefined) was tested, and the survivor count (dose: 172.8 mg/kg/injection, schedule: Q#A X014 (ip), vehicle: carboxymethylcellulose (CMC)) was 6 of 10, the survivor count (dose: 216.0 mg/kg/injection, schedule: Q#A X014 (ip), vehicle: carboxymethylcellulose (CMC)) was 6 of 10 and the survivor count (dose: 288.0 mg/kg/injection, schedule: Q#A X014 (ip), vehicle: carboxymethylcellulose (CMC)) was 1 of 10. The survivor count (dose: 432.0 mg/kg/injection, schedule: Q#A X014 (ip), vehicle: carboxymethylcellulose (CMC)) was 2 of 10 and the survivor count (dose: 864.0 mg/kg/injection, schedule: Q01DX007 (ip), vehicle: carboxymethylcellulose (CMC)) was 5 of 10.

With `CCC(=O)OCC1OC(n2cnc3c(=S)nc(N)[nH]c32)C(OC(=O)CC)C1OC(=O)CC` (centres undefined) the T/C (dose: 7.0 mg/kg/injection, schedule: Q01DX007 (ip), vehicle: carboxymethylcellulose (CMC)) was 40, 41, 45, 80 % of control, the T/C (dose: 15.0 mg/kg/injection, schedule: Q01DX007 (ip), vehicle: carboxymethylcellulose (CMC)) was 7 [4 of 6 alive], 24, 25 [4 of 6 alive], 41 % of control and the T/C (dose: 23.0 mg/kg/injection, schedule: Q01DX007 (ip), vehicle: carboxymethylcellulose (CMC)) was 5, 8, 14, 32 % of control. For the same compound, the survivor count (dose: 34.0 mg/kg/injection, schedule: Q01DX007 (ip), vehicle: carboxymethylcellulose (CMC)) was 2 of 6 and the survivor count (dose: 51.0 mg/kg/injection, schedule: Q01DX007 (ip), vehicle: carboxymethylcellulose (CMC)) was 0 of 6.

Reference: PubChem BioAssay AID342 (DTP/NCI, 2004)
